Patent US20080138837A1, “Methods and kits for detecting and measuring ADAMTS13/FXI complexes” (priority 2004, published 2008)
Results are given in words; binding and its absence hold for the method and conditions named. Some entries that bind do so weakly or less than the wild type.

Protein sequences, listed by entry. Tags and fused reporters are not part of them. Residues count along the entry.
UniProt P03951, residues 19-625: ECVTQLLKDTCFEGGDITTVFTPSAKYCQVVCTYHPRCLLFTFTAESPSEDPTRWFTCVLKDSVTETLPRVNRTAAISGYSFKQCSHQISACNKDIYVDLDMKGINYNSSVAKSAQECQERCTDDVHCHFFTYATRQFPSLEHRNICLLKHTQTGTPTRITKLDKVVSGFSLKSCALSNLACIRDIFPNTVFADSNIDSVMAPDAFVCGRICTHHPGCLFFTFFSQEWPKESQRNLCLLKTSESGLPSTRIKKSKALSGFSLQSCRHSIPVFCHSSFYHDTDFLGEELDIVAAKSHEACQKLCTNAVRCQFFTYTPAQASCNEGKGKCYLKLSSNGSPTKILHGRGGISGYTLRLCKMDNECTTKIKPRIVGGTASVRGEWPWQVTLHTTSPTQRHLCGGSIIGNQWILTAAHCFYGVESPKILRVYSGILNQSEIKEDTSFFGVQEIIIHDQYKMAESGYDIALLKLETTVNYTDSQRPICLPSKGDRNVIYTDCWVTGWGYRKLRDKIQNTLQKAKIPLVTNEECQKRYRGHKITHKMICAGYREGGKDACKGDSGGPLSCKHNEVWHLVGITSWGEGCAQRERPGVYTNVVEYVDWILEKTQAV

How the values were obtained:
[1] = target: T1, plasma ADAMTS13 (human) (UniProt Q76LX8); test: FXI added to FXI-deficient plasma; complex ELISA: anti-ADAMTS13 capture, anti-FXI-HRP detection
T1 sequence: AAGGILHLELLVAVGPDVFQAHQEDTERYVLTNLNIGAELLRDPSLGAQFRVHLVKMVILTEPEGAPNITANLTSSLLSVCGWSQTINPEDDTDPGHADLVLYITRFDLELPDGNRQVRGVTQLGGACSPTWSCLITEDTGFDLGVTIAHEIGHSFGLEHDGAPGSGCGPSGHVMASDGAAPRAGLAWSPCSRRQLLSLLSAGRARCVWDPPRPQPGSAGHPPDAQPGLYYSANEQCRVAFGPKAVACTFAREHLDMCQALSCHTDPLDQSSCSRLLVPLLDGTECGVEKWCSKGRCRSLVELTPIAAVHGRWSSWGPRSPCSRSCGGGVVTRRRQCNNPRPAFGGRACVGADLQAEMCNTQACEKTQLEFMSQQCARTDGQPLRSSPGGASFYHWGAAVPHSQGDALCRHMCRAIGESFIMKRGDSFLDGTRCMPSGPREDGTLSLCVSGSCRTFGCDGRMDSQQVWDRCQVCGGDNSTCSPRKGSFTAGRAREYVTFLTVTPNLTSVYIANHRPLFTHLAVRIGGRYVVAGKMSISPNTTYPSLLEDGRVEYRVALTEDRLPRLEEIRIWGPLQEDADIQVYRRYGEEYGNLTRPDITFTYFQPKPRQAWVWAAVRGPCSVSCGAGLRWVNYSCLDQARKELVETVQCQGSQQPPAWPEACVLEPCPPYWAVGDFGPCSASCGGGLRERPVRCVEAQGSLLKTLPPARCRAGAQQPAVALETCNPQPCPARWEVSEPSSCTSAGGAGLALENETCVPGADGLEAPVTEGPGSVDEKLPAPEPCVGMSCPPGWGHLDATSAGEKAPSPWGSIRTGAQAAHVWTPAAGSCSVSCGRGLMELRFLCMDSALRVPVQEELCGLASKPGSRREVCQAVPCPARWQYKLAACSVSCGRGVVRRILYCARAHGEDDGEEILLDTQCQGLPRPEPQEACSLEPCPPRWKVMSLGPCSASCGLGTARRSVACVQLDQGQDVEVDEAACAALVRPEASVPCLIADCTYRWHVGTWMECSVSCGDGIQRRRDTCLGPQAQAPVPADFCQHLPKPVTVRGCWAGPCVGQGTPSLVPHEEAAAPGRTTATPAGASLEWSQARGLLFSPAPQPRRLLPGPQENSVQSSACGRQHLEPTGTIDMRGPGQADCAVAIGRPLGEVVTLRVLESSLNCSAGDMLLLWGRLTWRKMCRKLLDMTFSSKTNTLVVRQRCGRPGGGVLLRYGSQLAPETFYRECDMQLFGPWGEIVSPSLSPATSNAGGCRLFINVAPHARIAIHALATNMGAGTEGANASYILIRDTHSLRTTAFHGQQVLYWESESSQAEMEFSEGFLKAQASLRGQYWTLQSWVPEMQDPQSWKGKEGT

[2] = target: T1, plasma ADAMTS13 (human); test: complex ELISA: anti-ADAMTS13 capture, anti-FXI-HRP detection

binding [1]: binds
binding [2]: binds
Substance: Factor XI (from UniProt P03951 19-625) (enzyme)
